{"source": "PubChem BioAssay AID720505 | Drosophila RNAi Screening Center, 2013", "purpose": "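Genes needed for store-operated calcium entry in fly cells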 (primary screen)", "cells": "Drosophila S2R+ cells", "reagents": "long dsRNA against Drosophila genes", "treatment": "thapsigargin (2 µM) in calcium-free buffer to empty internal stores, then 2 mM calcium added back", "measurement": "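Fluo-4 signal in 384-well plates read on a FLIPR after thapsigargin (2 µM, calcium-free) store depletion and 2 mM calcium add-back; unnormalised mean endpoint per well; screen run twice, selected wells retested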", "reading the numbers": "calcium signal: higher = more calcium entry after store depletion", "call rule": "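Knock-downs counted as hits when calcium entry dropped relative to STIM1 positive and Rho1 negative controls present on each plate; roughly 1500 genes called, with reductions of differing size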", "meaning of the calls": "active = called as lowering calcium entry; inactive = not called", "note": "In all, the deposit lists about 20,000 reagents; this is a random part of those with a known target gene and a result. Of all reagents, about 2,100 (10%) are marked active. 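Raw plate signals without normalisation; calls rest on control-based scores that were not deposited; replicate 2 separates called from uncalled poorly.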 Entries without a mark were called inactive. Not given: the amount of reagent, the time to read-out."}
{"gene knocked down": "Agpat4", "dsRNA": "DRSC10446", "calcium signal, replicate 1": "102 (active)", "calcium signal, replicate 2": 92.6}
{"gene knocked down": "chn", "dsRNA": "DRSC06086", "calcium signal, replicate 1": 169, "calcium signal, replicate 2": 93.7}
{"gene knocked down": "ds", "dsRNA": "DRSC00815", "calcium signal, replicate 1": 139, "calcium signal, replicate 2": 138}
{"gene knocked down": "CG9626", "dsRNA": "DRSC16525", "calcium signal, replicate 1": 119, "calcium signal, replicate 2": 120}
{"gene knocked down": "CG15373", "dsRNA": "DRSC19663", "calcium signal, replicate 1": 89.9, "calcium signal, replicate 2": 143}
{"gene knocked down": "CG12402", "dsRNA": "DRSC14508", "calcium signal, replicate 1": 111, "calcium signal, replicate 2": 165}

Records above whose target name starts with C or c:
{"gene knocked down": "chn", "dsRNA": "DRSC06086", "calcium signal, replicate 1": 169, "calcium signal, replicate 2": 93.7}
{"gene knocked down": "CG9626", "dsRNA": "DRSC16525", "calcium signal, replicate 1": 119, "calcium signal, replicate 2": 120}
{"gene knocked down": "CG15373", "dsRNA": "DRSC19663", "calcium signal, replicate 1": 89.9, "calcium signal, replicate 2": 143}
{"gene knocked down": "CG12402", "dsRNA": "DRSC14508", "calcium signal, replicate 1": 111, "calcium signal, replicate 2": 165}

The listing continues:
{"gene knocked down": "CG32576", "dsRNA": "DRSC19136", "calcium signal, replicate 1": 75.2, "calcium signal, replicate 2": 96}
{"gene knocked down": "ana", "dsRNA": "DRSC07579", "calcium signal, replicate 1": 187, "calcium signal, replicate 2": 103}
{"gene knocked down": "CG6180", "dsRNA": "DRSC02937", "calcium signal, replicate 1": 115, "calcium signal, replicate 2": 107}
{"gene knocked down": "Andorra", "dsRNA": "DRSC19475", "calcium signal, replicate 1": 90.4, "calcium signal, replicate 2": 131}
{"gene knocked down": "Klp67A", "dsRNA": "DRSC11205", "calcium signal, replicate 1": 62.3, "calcium signal, replicate 2": 59.8}
{"gene knocked down": "CG32301", "dsRNA": "DRSC08613", "calcium signal, replicate 1": 97.9, "calcium signal, replicate 2": 107}
